Results are given in words; binding and its absence hold for the method and conditions named. In cells and extracts the contact can be indirect. A result given as binding can be weak or reduced; the word gives no strength.
Target: METTL8 fused to the Twin-Strep tag at the C-terminus (human) (UniProt Q9H825)
Assay: pull-down

Chains of the proteins cited; added tags and fusions are not shown. Lines headed by an entry give the natural chain unless they say otherwise; changes in a name come on top. Residues count along the entry.
UniProt Q9H825: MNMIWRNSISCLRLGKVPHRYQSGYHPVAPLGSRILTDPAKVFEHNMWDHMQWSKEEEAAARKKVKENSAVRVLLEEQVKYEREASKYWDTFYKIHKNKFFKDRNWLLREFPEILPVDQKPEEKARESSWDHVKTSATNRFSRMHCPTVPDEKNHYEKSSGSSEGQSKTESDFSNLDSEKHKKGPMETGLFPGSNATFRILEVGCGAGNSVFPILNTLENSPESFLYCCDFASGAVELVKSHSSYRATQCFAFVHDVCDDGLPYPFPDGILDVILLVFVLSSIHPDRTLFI
UniProt Q9NP81, residues 35-518: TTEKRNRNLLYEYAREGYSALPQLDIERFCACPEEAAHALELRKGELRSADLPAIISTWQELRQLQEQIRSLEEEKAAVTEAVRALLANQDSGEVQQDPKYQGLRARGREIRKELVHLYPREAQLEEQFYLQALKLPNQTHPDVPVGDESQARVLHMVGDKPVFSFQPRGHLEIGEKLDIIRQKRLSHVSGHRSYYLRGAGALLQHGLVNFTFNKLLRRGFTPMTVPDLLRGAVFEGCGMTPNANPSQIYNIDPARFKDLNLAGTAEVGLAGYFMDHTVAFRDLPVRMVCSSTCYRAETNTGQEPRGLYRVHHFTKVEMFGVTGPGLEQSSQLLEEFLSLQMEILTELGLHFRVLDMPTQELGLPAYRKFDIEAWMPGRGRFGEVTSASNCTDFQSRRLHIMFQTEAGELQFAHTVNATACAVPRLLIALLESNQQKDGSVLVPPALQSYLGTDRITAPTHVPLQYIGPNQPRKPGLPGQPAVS

Substance	binding
FLAG-tagged SARS2 (mitochondrial seryl-tRNA synthetase) (from UniProt Q9NP81 35-518) (enzyme)	binds
endogenous mitochondrial seryl-tRNA synthetase (SARS2) (from UniProt Q9NP81 35-518) (enzyme)	binds
